The list shows a part of the results. Further columns of the screen follow, without active or inactive calls. Most of these compounds were active or inconclusive in the main read-out, so they are no random draw. Words in brackets tell the shape of the fitted curve; partial curves, single points and poor fits give uncertain potencies.
Assay: qHTS Assay to Find Inhibitors of Chronic Active B-Cell Receptor Signaling
Details: ABC-DLBCL IkBa-CBG/CBR reporter, luminescence ratio (green luciferase fused to IkBa over red control in TMD8 lymphoma cells), 4 h
Summary of the method: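 Compounds up to 46 uM were incubated four hours with TMD8 cells whose green CBG68 luciferase is fused to IkappaBalpha; red CBR luminescence normalised the signal, and concentration-effect curves were fitted to fusion, red and ratio data.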

[1] = measured here: CBR red luminescence, cell number
[2] = measured here: IkBa-CBG green luminescence

SMILES	AC50 [1]	AC50 [2]
CSc1ncccc1C(=O)NCCc1ccc(Cl)cc1	3.55 µM [falling, full curve, poor fit]	–
COc1cccc(/C(C)=N/N=C(\C)c2cccc(OC)c2)c1	4.47 µM [rising, full curve, poor fit]	–
O=C(CCS(=O)(=O)c1ccccc1)Nc1ncc([N+](=O)[O-])s1	35.5 µM [falling, single point]	–
CC(=O)Oc1ccc(-c2cccc(C(=O)OCC(=O)N(C)c3ccccc3)c2)cc1	18.4 µM [falling, single point]	–
O=C(Nc1c(C(=O)O)oc2ccccc12)c1ccc(C(F)(F)F)cc1	12.6 µM [falling, single point]	–
CCN(c1ccccc1)S(=O)(=O)c1ccc(C(=O)N(CCCN(C)C)c2nc3cc4c(cc3s2)OCO4)cc1	31.6 µM [falling, single point]	–
COc1cccc(NC(=O)CN2C(=O)CSc3nc(C)cc(C)c32)c1	0.1 µM [falling, full curve, poor fit]	–
Cc1ccc(NC(=O)c2ccc3nc[nH]c3c2)cc1C	29.1 µM [falling, single point]	–
NS(=O)(=O)c1ccc(CNC(=O)C(c2ccccc2)c2ccccc2)cc1	15.8 µM [falling, partial curve, poor fit]	–
CCC(=O)Nc1nc(-c2ccccc2)nc(SC)c1C(C)=O	2.82 µM [falling, partial curve]	–
O=[N+]([O-])c1ccc(N2CCN(C(=S)Nc3cccc(F)c3)CC2)cc1	35.5 µM [falling, partial curve, poor fit]	–
CCCCC[C@H](O)/C=C/C1=C(CCCCCCC(=O)O)C(=O)CC1	0.112 µM [rising, full curve, poor fit]	8.2 µM [falling, partial curve]
O=C(NCCc1ccc2c(c1)OCCO2)c1ccc(F)cc1	7.31 µM [falling, partial curve]	–
O=C(c1cnn(C(=O)c2ccc(O)cc2)c1)c1ccccc1O	0.398 µM [falling, full curve, poor fit]	–
CS(=O)(=O)c1ccc2nc(NC(=O)Nc3ccccc3F)sc2c1	0.501 µM [rising, partial curve, poor fit]	–
COc1cccc(-n2c(C)c3c(OC)cccc(=O)c3c2C)c1	3.98 µM [rising, full curve, poor fit]	–
O=C(NCc1cccnc1)/C(=C\c1ccc(-c2cccc(Cl)c2)o1)S(=O)(=O)c1ccccc1	25.9 µM [falling, single point]	25.9 µM [rising, partial curve, poor fit]
CCOC(=O)/C(C#N)=C1\Nc2ccccc2N=C1N(CC(C)C)CC(C)C	13 µM [falling, partial curve, poor fit]	–
COC(=O)c1c(C)[nH]c(C(=O)C(C)OC(=O)c2c(C)noc2C)c1C (stereo unspecified)	2.91 µM [rising, partial curve, poor fit]	–
O=C(Nc1ccc(Nc2ccccc2)cc1)Nc1ccccc1Cl	8.91 µM [falling, partial curve]	–
COc1ccccc1OCc1cc(-c2ccccc2)no1	11.2 µM [falling, partial curve]	–

SMILES	AC50 [1]	AC50 [2]
CCOC(=O)C(C(=O)OCC)C(Nc1ccc(Br)cc1)c1ccccc1 (stereo unspecified)	0.562 µM [falling, full curve, poor fit]	–
CC(=O)N(CCCCN1C(=O)c2ccccc2C1=O)c1ccc(C)cc1	1.3 µM [rising, partial curve]	–
Cc1ccc(C=Nc2cccnc2N)cc1	11.6 µM [falling, single point]	–
CCOC(=O)CC(=O)Nc1nc2ccccc2s1	17.8 µM [falling, single point]	–
CC(=O)c1ccc(N(CC(=O)NC2CCS(=O)(=O)C2)S(=O)(=O)c2ccc(C)cc2)cc1 (stereo unspecified)	14.6 µM [rising, partial curve, poor fit]	–
Cc1cc(NC(=O)c2cccc(Cl)c2)n[nH]1	18.4 µM [falling, single point]	–
CCCc1c(-c2ccc(O)cc2)nn(-c2ccc(O)cc2)c1-c1ccc(O)cc1	12.6 µM [falling, partial curve]	–
COc1ccc(C(=O)COC(=O)c2ccco2)cc1	3.98 µM [rising, partial curve, poor fit]	–
COc1ccccc1NS(=O)(=O)c1cc(C(=O)N2CCCC2)ccc1F	0.116 µM [falling, full curve, poor fit]	–
COc1ccccc1OCC(=O)Nc1ccccc1C(=O)NCc1ccco1	0.517 µM [falling, full curve, poor fit]	–
CC(C)(C)C1CCC(=NNC(=O)c2ccco2)CC1 (stereo unspecified)	15.8 µM [falling, partial curve, poor fit]	–
COc1cccc(NC(=O)Cc2ccc(C)cc2)c1	32.6 µM [rising, single point]	–
O=C(COc1ccccc1Cl)N(Cc1cccs1)C1CCS(=O)(=O)C1 (stereo unspecified)	2.82 µM [falling, full curve, poor fit]	–
Cc1onc(-c2ccccc2)c1C(=O)Nc1cccnc1	10 µM [falling, partial curve, poor fit]	–
Cc1cc(NC(=O)CSc2nnc(C3CC3)n2-c2ccccc2)no1	10 µM [falling, partial curve, poor fit]	–
COCC(=O)OC/C(O)=C(\C#N)c1nc2ccccc2[nH]1	35.5 µM [rising, single point]	–
Oc1c(Cl)cc(Cl)c(Cl)c1Cc1c(O)c(Cl)cc(Cl)c1Cl	14.1 µM [falling, single point]	1 µM [rising, full curve, poor fit]
O=C(CSc1nnc(CCCN2C(=O)c3cccc4cccc(c34)C2=O)n1-c1ccccc1)NCCCO	2.91 µM [rising, partial curve]	–
Cc1nc2cc(C(=O)OCC(=O)NC(C)C(C)C)ccc2n1-c1ccccc1 (stereo unspecified)	2.59 µM [rising, partial curve, poor fit]	–
COc1cc(OC)c(OC)cc1/C=N/NC(=S)NCCN1CCOCC1	–	11.2 µM [falling, partial curve, poor fit]
CC(C)(CC(=O)O)CC(=O)N1CCN(c2nc3cc(Cl)ccc3s2)CC1	11.2 µM [falling, partial curve]	–

SMILES	AC50 [1]	AC50 [2]
N#C/C(=C\c1cccc([N+](=O)[O-])c1)C(=O)NCc1ccc(Cl)cc1	20 µM [falling, single point]	–
C[C@@H](C(=O)NCc1ccccn1)[C@H]1C[C@]1(C)[C@H](NC(=O)OCc1ccccc1)c1ccccc1	18.4 µM [falling, single point]	–
COCC1CCN(Cc2c(C(=O)N3CCN(C4CCCCC4)CC3)nc3ccccn23)C1 (stereo unspecified)	5.62 µM [rising, partial curve]	–
CCOC(=O)c1c(NC(=O)C2COc3ccccc3O2)sc2c1CC(C)(C)NC2(C)C (stereo unspecified)	14.6 µM [falling, single point]	–
CCOC(=O)C1=C(C)OC2(O)c3ccccc3C(=O)C12O (stereo unspecified)	17.8 µM [rising, single point]	–
COc1ccc2c3c([nH]c2c1)C(C)N(C(C)=O)CC3 (stereo unspecified)	10 µM [rising, partial curve, poor fit]	–
CCOc1ccc(NC(=O)/C=C\C(=O)N(c2ccc(C(C)C)cc2)C(C(=O)NCc2ccco2)c2ccc(F)cc2)cc1 (stereo unspecified)	35.5 µM [falling, single point]	–
CC(Oc1cccc(Br)c1)C(=O)NNC(=O)c1ccccn1 (stereo unspecified)	14.6 µM [rising, partial curve]	–
Cc1nn(-c2ccccc2)c(N)c1C(O)(CSc1nccn1C)C(F)(F)F (stereo unspecified)	1.16 µM [falling, full curve, poor fit]	–
CC(=O)NC12CC3CC(C1)CC(C(=O)Nc1c(C)n(C)n(-c4ccccc4)c1=O)(C3)C2	35.5 µM [rising, single point]	–
C=CCc1c(C)nc(C)nc1N/N=C/c1ccc(F)cc1	29.1 µM [rising, single point]	–
COc1ccccc1NC1=C(C)C(=O)CC1	25.9 µM [rising, partial curve, poor fit]	23.1 µM [falling, partial curve, poor fit]
O=C(/C=C/c1ccccc1Cl)c1ccc[nH]1	18.4 µM [falling, single point]	–
COc1ccc(CNCCC(c2ccccc2)c2ccc3c(c2)OCO3)cc1 (stereo unspecified)	1.12 µM [falling, full curve, poor fit]	–
COc1ccc(-c2oc(=O)c3cc(OC)c(OC)cc3c2-c2ccc3c(c2)OCO3)cc1	5.17 µM [rising, partial curve, poor fit]	–
O=S(=O)(c1ccc(Cl)cc1)N1CCCN(c2ccc(C(F)(F)F)cn2)CC1	8.91 µM [falling, partial curve, poor fit]	–
O=C(O)CC/C(=C\c1ccc(N2CCCC2)c([N+](=O)[O-])c1)c1nc2ccccc2s1	0.0891 µM [rising, full curve, poor fit]	–
Cc1cccc(CCNC(=O)CCNC(=O)Cn2ccc3ccccc3c2=O)c1	16.4 µM [rising, partial curve, poor fit]	–
O=C(NC1CCN(C(=S)NCc2ccco2)CC1)NC12CC3CC(CC(C3)C1)C2	3.16 µM [falling, full curve, poor fit]	–
CCCc1cc(=O)oc2c(C)c(OC3CCCCC3=O)ccc12 (stereo unspecified)	5.62 µM [falling, partial curve, poor fit]	–

Given as a markdown table: part of the list above.

| SMILES | AC50 [1] | AC50 [2] |
| --- | --- | --- |
| COc1ccccc1NC1=C(C)C(=O)CC1 | 25.9 µM [rising, partial curve, poor fit] | 23.1 µM [falling, partial curve, poor fit] |
| O=C(/C=C/c1ccccc1Cl)c1ccc[nH]1 | 18.4 µM [falling, single point] | – |
| O=C(NC1CCN(C(=S)NCc2ccco2)CC1)NC12CC3CC(CC(C3)C1)C2 | 3.16 µM [falling, full curve, poor fit] | – |

From PubChem BioAssay AID493014 (National Center for Advancing Translational Sciences (NCATS), 2011)
